These are yes or no findings as the source states them, for the method shown. Some results given as binding are weak or reduced against the parent protein; the word gives no strength.
B1: Antibody A (antibody, human IgG1, kappa, N297A, V domains shown)
VH: EVQLVQSGAEVKKPGESLKISCKGSGYAFTNYLIEWVRQMPGKGLEWMGVINPGSGGTNYNEKFKGQVTISADKSISTAYLQWSSLKASDTAMYYCARWRGEGYYAYFDVWGQGTTVTVSS
VL: AIRLTQSPSSFSASTGDRVTITCKASQSVDYQGDSYMNWYQQKPGKAPKLLIYAASNLESGVPSRFSGSGSGTDFTLTISSLQSEDFATYYCQQSNEDPYTFGGGTKVEIKR
B2: Antibody B (antibody, human IgG1, kappa, V domains shown)
VH: QVQLVESGGGVVQPGRSLRLSCAASGYTFSSYLIEWVRQAPGKGLEWVAVINPGSGGTNYADSVKGRFTISADKSKNTAYLQMNSLRAEDTAVYYCARWRGDGYYAYFDVWGQGTTVTVSS
VL: EIVLTQSPATLSVSPGERATLSCRASQSVSYDGDSYMNWYQQKPGQAPRLLIYAASNLASGIPARFSGSGSGTEFTLTISSLQSEDAAVYYCQQSNEDPYTFGGGTKVEIKR

Chains of the proteins cited; added tags and fusions are not shown. Residues count along the entry.
UniProt P60568, residues 21-153: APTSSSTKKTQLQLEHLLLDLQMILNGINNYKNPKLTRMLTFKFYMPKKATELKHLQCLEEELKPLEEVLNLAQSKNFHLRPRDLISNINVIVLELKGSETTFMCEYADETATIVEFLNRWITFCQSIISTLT

Assays:
[1] = target: recombinant human IL-2 (human) (UniProt P60568); assay: ELISA and BLI
[2] = target: recombinant human IL-2 (human) (UniProt P60568); assay: BLI

| Binder | binding [1] | binding [2] |
| --- | --- | --- |
| B1 | binds | – |
| B2 | – | binds |

Source: patent EP4431525A1 (Anaveon AG, dated 2024)
